# Measurements: the supplement of paper PMC8728848
# The list shows a part of the results.
# Key:
# Test in all cases: glycan array binding signal (z-score within array); higher = stronger binding
# Settings in all cases: glycan notation: IUPAC condensed, linker removed
# [1] = target: Gal(b1-4)GlcNAc(b1-3)Gal(b1-4)GlcNAc(b1-2)[Gal(b1-4)GlcNAc(b1-3)Gal(b1-4)GlcNAc(b1-6)]Man(a1-6)[Gal(b1-4)GlcNAc(b1-3)Gal(b1-4)GlcNAc(b1-2)Man(a1-3)]Man(b1-4)GlcNAc(b1-4)GlcNAc
# Method in brief: (§1)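 Columns mapping to the same glycan were averaged after glycan names were converted to IUPAC-condensed notation. The data come from 3228 arrays in the Consortium for Functional Glycomics database, limited to those with an available protein sequence. Binding is reported as a within-array Z-score averaged across arrays of one protein sequence and across linkers.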
# [2] = target: Gal(b1-4)GlcNAc(b1-3)Gal(b1-4)GlcNAc(b1-2)[Gal(b1-4)GlcNAc(b1-3)Gal(b1-4)GlcNAc(b1-6)]Man(a1-6)[Gal(b1-4)GlcNAc(b1-3)Gal(b1-4)GlcNAc(b1-2)Man(a1-3)]Man(b1-4)GlcNAc(b1-4)[Fuc(a1-6)]GlcNAc
# Method in brief: as §1
# [3] = target: Gal(b1-4)GlcNAc(b1-3)Gal(b1-4)GlcNAc(b1-3)Gal(b1-4)GlcNAc
# Method in brief: as §1
# [4] = target: Gal(b1-4)GlcNAc(b1-3)Gal(b1-4)GlcNAc(b1-3)Gal(b1-4)GlcNAc(b1-2)Man(a1-3)[Gal(b1-4)GlcNAc(b1-3)Gal(b1-4)GlcNAc(b1-3)Gal(b1-4)GlcNAc(b1-2)Man(a1-6)]Man(b1-4)GlcNAc(b1-4)GlcNAc
# Method in brief: as §1
# [5] = target: Gal(b1-4)GlcNAc(b1-3)Gal(b1-4)GlcNAc(b1-3)Gal(b1-4)GlcNAc(b1-2)Man(a1-3)[Gal(b1-4)GlcNAc(b1-3)Gal(b1-4)GlcNAc(b1-3)Gal(b1-4)GlcNAc(b1-2)Man(a1-6)]Man(b1-4)GlcNAc(b1-4)[Fuc(a1-6)]GlcNAc
# Method in brief: as §1
# [6] = target: Gal(b1-4)GlcNAc(b1-3)Gal(b1-4)GlcNAc(b1-3)Gal(b1-4)GlcNAc(b1-2)[Gal(b1-4)GlcNAc(b1-3)Gal(b1-4)GlcNAc(b1-3)Gal(b1-4)GlcNAc(b1-6)]Man(a1-6)[Gal(b1-4)GlcNAc(b1-3)Gal(b1-4)GlcNAc(b1-3)Gal(b1-4)GlcNAc(b1-2)Man(a1-3)]Man(b1-4)GlcNAc(b1-4)[Fuc(a1-6)]GlcNAc
# Method in brief: as §1
# [7] = target: Gal(b1-4)GlcNAc(b1-3)Gal(b1-4)GlcNAc(b1-3)Gal(b1-4)GlcNAc(b1-3)Gal(b1-4)GlcNAc(b1-2)Man(a1-3)[Gal(b1-4)GlcNAc(b1-3)Gal(b1-4)GlcNAc(b1-3)Gal(b1-4)GlcNAc(b1-3)Gal(b1-4)GlcNAc(b1-2)Man(a1-6)]Man(b1-4)GlcNAc(b1-4)GlcNAc
# Method in brief: as §1
# [8] = target: Gal(b1-4)GlcNAc(b1-3)Gal(b1-4)GlcNAc(b1-3)Gal(b1-4)GlcNAc(b1-3)Gal(b1-4)GlcNAc(b1-2)Man(a1-3)[Gal(b1-4)GlcNAc(b1-3)Gal(b1-4)GlcNAc(b1-3)Gal(b1-4)GlcNAc(b1-3)Gal(b1-4)GlcNAc(b1-2)Man(a1-6)]Man(b1-4)GlcNAc(b1-4)[Fuc(a1-6)]GlcNAc
# Method in brief: as §1
# [9] = target: Gal(b1-4)GlcNAc(b1-3)Gal(b1-4)GlcNAc(b1-3)Gal(b1-4)GlcNAc(b1-3)Gal(b1-4)GlcNAc(b1-2)[Gal(b1-4)GlcNAc(b1-3)Gal(b1-4)GlcNAc(b1-3)Gal(b1-4)GlcNAc(b1-3)Gal(b1-4)GlcNAc(b1-6)]Man(a1-6)[Gal(b1-4)GlcNAc(b1-3)Gal(b1-4)GlcNAc(b1-3)Gal(b1-4)GlcNAc(b1-3)Gal(b1-4)GlcNAc(b1-2)Man(a1-3)]Man(b1-4)GlcNAc(b1-4)[Fuc(a1-6)]GlcNAc
# Method in brief: as §1
# [10] = target: Gal(b1-4)GlcNAc(b1-3)Gal(b1-4)GlcNAc(b1-3)Gal(b1-4)GlcNAc(b1-3)Gal(b1-4)GlcNAc(b1-3)Gal(b1-4)GlcNAc(b1-2)Man(a1-3)[Gal(b1-4)GlcNAc(b1-3)Gal(b1-4)GlcNAc(b1-3)Gal(b1-4)GlcNAc(b1-3)Gal(b1-4)GlcNAc(b1-3)Gal(b1-4)GlcNAc(b1-2)Man(a1-6)]Man(b1-4)GlcNAc(b1-4)GlcNAc
# Method in brief: as §1
# [11] = target: Gal(b1-4)GlcNAc(b1-3)Gal(b1-4)GlcNAc(b1-3)Gal(b1-4)GlcNAc(b1-3)Gal(b1-4)GlcNAc(b1-3)Gal(b1-4)GlcNAc(b1-2)Man(a1-3)[Gal(b1-4)GlcNAc(b1-3)Gal(b1-4)GlcNAc(b1-3)Gal(b1-4)GlcNAc(b1-3)Gal(b1-4)GlcNAc(b1-3)Gal(b1-4)GlcNAc(b1-2)Man(a1-6)]Man(b1-4)GlcNAc(b1-4)[Fuc(a1-6)]GlcNAc
# Method in brief: as §1
# [12] = target: Gal(b1-4)GlcNAc(b1-3)Gal(b1-4)GlcNAc(b1-3)Gal(b1-4)GlcNAc(b1-3)Gal(b1-4)GlcNAc(b1-3)Gal(b1-4)GlcNAc(b1-2)[Gal(b1-4)GlcNAc(b1-3)Gal(b1-4)GlcNAc(b1-3)Gal(b1-4)GlcNAc(b1-3)Gal(b1-4)GlcNAc(b1-3)Gal(b1-4)GlcNAc(b1-6)]Man(a1-6)[Gal(b1-4)GlcNAc(b1-3)Gal(b1-4)GlcNAc(b1-3)Gal(b1-4)GlcNAc(b1-3)Gal(b1-4)GlcNAc(b1-3)Gal(b1-4)GlcNAc(b1-2)Man(a1-3)]Man(b1-4)GlcNAc(b1-4)[Fuc(a1-6)]GlcNAc
# Method in brief: as §1
# [13] = target: Gal(b1-4)GlcNAc(b1-3)Gal(b1-4)GlcNAc(b1-3)Gal(b1-4)GlcNAc(b1-3)Gal(b1-4)GlcNAc(b1-3)Gal(b1-4)GlcNAc(b1-3)Gal(b1-4)GlcNAc(b1-2)Man(a1-3)[Gal(b1-4)GlcNAc(b1-3)Gal(b1-4)GlcNAc(b1-3)Gal(b1-4)GlcNAc(b1-3)Gal(b1-4)GlcNAc(b1-3)Gal(b1-4)GlcNAc(b1-3)Gal(b1-4)GlcNAc(b1-2)Man(a1-6)]Man(b1-4)GlcNAc(b1-4)GlcNAc
# Method in brief: as §1
# [14] = target: Gal(b1-4)GlcNAc(b1-3)Gal(b1-4)GlcNAc(b1-3)GalNAc
# Method in brief: as §1
# [15] = target: Gal(b1-4)GlcNAc(b1-3)Gal(b1-4)GlcNAc(b1-3)[Gal(b1-4)GlcNAc(b1-3)Gal(b1-4)GlcNAc(b1-6)]GalNAc
# Method in brief: as §1
# [16] = target: Gal(b1-4)GlcNAc(b1-3)Gal(b1-4)GlcNAc(b1-6)[Gal(b1-3)]GalNAc
# Method in brief: as §1
# [17] = target: Gal(b1-4)GlcNAc(b1-3)Gal(b1-4)[Fuc(a1-3)]GlcNAc(b1-3)Gal(b1-4)[Fuc(a1-3)]GlcNAc
# Method in brief: as §1
# [18] = target: Gal(b1-4)GlcNAc(b1-3)GalNAc
# Method in brief: as §1
# [19] = target: Gal(b1-4)GlcNAc(b1-3)[Fuc(a1-3)GlcNAc(b1-6)]Gal(b1-4)Glc
# Method in brief: as §1
# [20] = target: Gal(b1-4)GlcNAc(b1-3)[Gal(b1-4)GlcNAc(b1-6)]Gal(b1-4)GlcNAc
# Method in brief: as §1
# [21] = target: Gal(b1-4)GlcNAc(b1-3)[GlcNAc(b1-6)]Gal(b1-4)GlcNAc
# Method in brief: as §1
# [22] = target: Gal(b1-4)GlcNAc(b1-6)Gal(b1-4)GlcNAc
# Method in brief: as §1
# [23] = target: Gal(b1-4)GlcNAc(b1-6)GalNAc
# Method in brief: as §1
# [24] = target: Gal(b1-4)GlcNAc(b1-6)[Gal(b1-3)]GalNAc
# Method in brief: as §1
# [25] = target: Gal(b1-4)GlcNAc(b1-6)[Gal(b1-4)GlcNAc(b1-3)]GalNAc
# Method in brief: as §1
# Gal(b1-4)GlcNAc6P = target: Gal(b1-4)GlcNAc6P
# Method in brief: as §1
# Gal(b1-6)Gal = target: Gal(b1-6)Gal
# Method in brief: as §1
# Gal3S(b1-3)GalNAc = target: Gal3S(b1-3)GalNAc
# Method in brief: as §1
# Gal3S(b1-3)GlcNAc = target: Gal3S(b1-3)GlcNAc
# Method in brief: as §1
# [26] = target: Gal3S(b1-3)[Fuc(a1-4)]GlcNAc
# Method in brief: as §1
# Gal3S(b1-4)Glc = target: Gal3S(b1-4)Glc
# Method in brief: as §1
# Gal3S(b1-4)Glc6S = target: Gal3S(b1-4)Glc6S
# Method in brief: as §1
# Gal3S(b1-4)GlcNAc = target: Gal3S(b1-4)GlcNAc
# Method in brief: as §1
# [27] = target: Gal3S(b1-4)[Fuc(a1-3)]Glc6S
# Method in brief: as §1
# [28] = target: Gal3S(b1-4)[Fuc(a1-3)]GlcNAc
# Method in brief: as §1
# [29] = target: Gal3S(b1-4)[Fuc(a1-3)]GlcNAc6S
# Method in brief: as §1
# Gal3S4S(b1-4)GlcNAc = target: Gal3S4S(b1-4)GlcNAc
# Method in brief: as §1
# Gal3S6S(b1-4)GlcNAc = target: Gal3S6S(b1-4)GlcNAc
# Method in brief: as §1
# Gal3S6S(b1-4)GlcNAc6S = target: Gal3S6S(b1-4)GlcNAc6S
# Method in brief: as §1
# Gal4S(b1-4)GlcNAc = target: Gal4S(b1-4)GlcNAc
# Method in brief: as §1
# Gal4S6S(b1-4)GlcNAc = target: Gal4S6S(b1-4)GlcNAc
# Method in brief: as §1
# Gal6P(b1-4)GlcNAc = target: Gal6P(b1-4)GlcNAc
# Method in brief: as §1
# Gal6S(b1-3)GlcNAc = target: Gal6S(b1-3)GlcNAc
# Method in brief: as §1
# Gal6S(b1-3)GlcNAc6S = target: Gal6S(b1-3)GlcNAc6S
# Method in brief: as §1
# Gal6S(b1-4)Glc = target: Gal6S(b1-4)Glc
# Method in brief: as §1
binder,measurement,setting,value
"Langerin K299A/K313A (Homo sapiens), Q9UJ71 (protein) STLNAQIPELKSDLEKASALNTKIRALQGSLENMSKLLKRQNDILQVVSQGWKYFKGNFYYFSLIPKTWYSAEQFCVSRNSHLTSVTSESEQEFLYKTAGGLIYWIGLTKAGMEGDWSWVDDTPFNKVQSARFWIPGEPNNAGNNEHCGNIAAPSLQAWNDAPCDATFLFICKRPYVPSEP",glycan array binding signal (z-score),[1],1.86
same,glycan array binding signal (z-score),[2],2.52
same,glycan array binding signal (z-score),[3],-0.541
same,glycan array binding signal (z-score),[4],2.42
same,glycan array binding signal (z-score),[5],1.46
same,glycan array binding signal (z-score),[6],-0.105
same,glycan array binding signal (z-score),[7],1.26
same,glycan array binding signal (z-score),[8],3.97
same,glycan array binding signal (z-score),[9],3.09
same,glycan array binding signal (z-score),[10],1.71
same,glycan array binding signal (z-score),[11],-0.369
same,glycan array binding signal (z-score),[12],1.6
same,glycan array binding signal (z-score),[13],1.04
same,glycan array binding signal (z-score),[14],-0.112
same,glycan array binding signal (z-score),[15],1.45
same,glycan array binding signal (z-score),[16],1.47
same,glycan array binding signal (z-score),[17],0.704
same,glycan array binding signal (z-score),[18],-0.649
same,glycan array binding signal (z-score),[19],-1.16
same,glycan array binding signal (z-score),[20],0.398
same,glycan array binding signal (z-score),[21],-0.968
same,glycan array binding signal (z-score),[22],0.093
same,glycan array binding signal (z-score),[23],-0.439
same,glycan array binding signal (z-score),[24],-0.626
same,glycan array binding signal (z-score),[25],-0.711
same,glycan array binding signal (z-score),Gal(b1-4)GlcNAc6P,0.224
same,glycan array binding signal (z-score),Gal(b1-6)Gal,0.579
same,glycan array binding signal (z-score),Gal3S(b1-3)GalNAc,-0.643
same,glycan array binding signal (z-score),Gal3S(b1-3)GlcNAc,0.369
same,glycan array binding signal (z-score),[26],0.975
same,glycan array binding signal (z-score),Gal3S(b1-4)Glc,-0.138
same,glycan array binding signal (z-score),Gal3S(b1-4)Glc6S,-0.193
same,glycan array binding signal (z-score),Gal3S(b1-4)GlcNAc,0.073
same,glycan array binding signal (z-score),[27],5.35
same,glycan array binding signal (z-score),[28],-0.817
same,glycan array binding signal (z-score),[29],0.871
same,glycan array binding signal (z-score),Gal3S4S(b1-4)GlcNAc,-0.877
same,glycan array binding signal (z-score),Gal3S6S(b1-4)GlcNAc,-0.279
same,glycan array binding signal (z-score),Gal3S6S(b1-4)GlcNAc6S,0.14
same,glycan array binding signal (z-score),Gal4S(b1-4)GlcNAc,-0.751
same,glycan array binding signal (z-score),Gal4S6S(b1-4)GlcNAc,-1.13
same,glycan array binding signal (z-score),Gal6P(b1-4)GlcNAc,0.32
same,glycan array binding signal (z-score),Gal6S(b1-3)GlcNAc,-0.241
same,glycan array binding signal (z-score),Gal6S(b1-3)GlcNAc6S,-0.479
same,glycan array binding signal (z-score),Gal6S(b1-4)Glc,-0.116

# Pulled one by one from above (three):
binder,measurement,setting,value
"Langerin K299A/K313A (Homo sapiens), Q9UJ71 (protein) STLNAQIPELKSDLEKASALNTKIRALQGSLENMSKLLKRQNDILQVVSQGWKYFKGNFYYFSLIPKTWYSAEQFCVSRNSHLTSVTSESEQEFLYKTAGGLIYWIGLTKAGMEGDWSWVDDTPFNKVQSARFWIPGEPNNAGNNEHCGNIAAPSLQAWNDAPCDATFLFICKRPYVPSEP",glycan array binding signal (z-score),Gal6P(b1-4)GlcNAc,0.32
same,glycan array binding signal (z-score),[23],-0.439
same,glycan array binding signal (z-score),[10],1.71
